Data from paper PMC8974011.
Construct, isoform or probe ends are uncertain for at least one entry. Results from cells or extracts need not show a direct contact. For some assays here: A negative result means that nothing was seen under these conditions. For some assays here: At least one verdict was read from the data and is not stated in words by the source.

The chains behind the UniProt entries cited, without tags or fusion partners. Residues count along the entry.
UniProt P42224, 1-746 R602L/Y701F: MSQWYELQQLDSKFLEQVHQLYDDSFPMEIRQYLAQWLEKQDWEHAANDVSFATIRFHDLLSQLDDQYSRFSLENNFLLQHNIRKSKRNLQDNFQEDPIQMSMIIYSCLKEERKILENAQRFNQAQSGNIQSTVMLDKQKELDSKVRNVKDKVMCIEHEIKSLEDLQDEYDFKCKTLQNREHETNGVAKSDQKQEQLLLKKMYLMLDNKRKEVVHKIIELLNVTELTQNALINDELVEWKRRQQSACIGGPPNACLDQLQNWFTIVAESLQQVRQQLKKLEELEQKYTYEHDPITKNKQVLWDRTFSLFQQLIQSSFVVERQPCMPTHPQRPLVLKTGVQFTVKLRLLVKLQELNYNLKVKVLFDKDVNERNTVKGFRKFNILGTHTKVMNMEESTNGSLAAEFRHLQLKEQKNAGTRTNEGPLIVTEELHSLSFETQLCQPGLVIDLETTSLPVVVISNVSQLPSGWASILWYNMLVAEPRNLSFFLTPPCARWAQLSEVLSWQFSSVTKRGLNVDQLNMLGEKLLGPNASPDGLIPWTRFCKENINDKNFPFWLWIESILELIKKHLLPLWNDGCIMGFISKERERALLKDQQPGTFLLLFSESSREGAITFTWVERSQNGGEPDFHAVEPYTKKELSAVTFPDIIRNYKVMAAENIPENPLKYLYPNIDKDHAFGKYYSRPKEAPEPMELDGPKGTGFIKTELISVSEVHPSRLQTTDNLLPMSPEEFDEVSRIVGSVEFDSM
UniProt P42224, 1-746 R274W/T385A/R602L/Y701F: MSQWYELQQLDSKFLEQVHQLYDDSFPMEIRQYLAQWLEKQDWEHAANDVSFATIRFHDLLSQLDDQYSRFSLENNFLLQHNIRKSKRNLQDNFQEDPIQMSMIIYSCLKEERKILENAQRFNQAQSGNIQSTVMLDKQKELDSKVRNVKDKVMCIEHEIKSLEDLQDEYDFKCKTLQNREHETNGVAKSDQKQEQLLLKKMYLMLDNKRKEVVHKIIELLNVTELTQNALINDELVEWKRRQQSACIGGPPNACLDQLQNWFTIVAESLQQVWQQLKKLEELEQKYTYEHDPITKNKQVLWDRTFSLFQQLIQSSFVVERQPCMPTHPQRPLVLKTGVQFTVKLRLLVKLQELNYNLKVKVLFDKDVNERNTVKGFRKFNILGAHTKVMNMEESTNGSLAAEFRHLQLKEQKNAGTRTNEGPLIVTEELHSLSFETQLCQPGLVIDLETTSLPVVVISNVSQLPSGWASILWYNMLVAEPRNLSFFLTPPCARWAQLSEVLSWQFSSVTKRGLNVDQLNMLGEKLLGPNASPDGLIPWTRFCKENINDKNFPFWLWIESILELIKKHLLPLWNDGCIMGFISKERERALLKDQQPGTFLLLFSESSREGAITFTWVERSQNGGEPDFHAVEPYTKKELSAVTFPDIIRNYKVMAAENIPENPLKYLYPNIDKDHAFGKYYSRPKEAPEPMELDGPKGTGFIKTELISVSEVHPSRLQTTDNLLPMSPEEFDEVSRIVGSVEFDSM
UniProt P42224, 1-746: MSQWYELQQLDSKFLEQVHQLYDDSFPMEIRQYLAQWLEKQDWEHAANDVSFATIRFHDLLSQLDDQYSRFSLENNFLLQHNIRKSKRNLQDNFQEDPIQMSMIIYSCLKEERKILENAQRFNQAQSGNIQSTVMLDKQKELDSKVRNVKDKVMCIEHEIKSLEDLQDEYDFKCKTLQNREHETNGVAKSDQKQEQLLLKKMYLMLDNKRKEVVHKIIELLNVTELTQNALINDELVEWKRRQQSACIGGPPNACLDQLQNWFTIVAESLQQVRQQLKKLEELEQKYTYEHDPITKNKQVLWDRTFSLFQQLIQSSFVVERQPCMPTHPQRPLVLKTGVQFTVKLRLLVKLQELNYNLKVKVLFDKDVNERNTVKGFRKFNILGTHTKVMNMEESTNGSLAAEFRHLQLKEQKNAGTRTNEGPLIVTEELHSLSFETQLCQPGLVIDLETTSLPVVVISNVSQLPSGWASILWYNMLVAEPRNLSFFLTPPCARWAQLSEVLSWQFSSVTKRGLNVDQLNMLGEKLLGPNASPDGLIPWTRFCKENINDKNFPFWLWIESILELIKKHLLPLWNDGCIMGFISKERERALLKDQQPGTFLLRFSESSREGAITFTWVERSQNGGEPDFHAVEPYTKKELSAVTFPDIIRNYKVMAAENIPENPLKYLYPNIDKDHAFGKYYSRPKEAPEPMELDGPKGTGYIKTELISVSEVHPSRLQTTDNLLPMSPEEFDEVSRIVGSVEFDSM

Assays:
[1] = molecular target: R602L/Y701F-GFP (mutant U-STAT1) (Homo sapiens) (UniProt P42224); assay: EMSA; settings: IFNg, co-expressed with untagged WT, no GFP-tagged STAT1 band; 4 ul cell extract + 8 ul EMSA reaction buffer (composition and pH not given) with 1 ng 33P probe, 15 min RT; 4.8% 29:1 acrylamide gel at 4 C, 400 V; protein in a lysate after overexpression; residues 1-746; protein details: C-terminal GFP; label: 33P (Klenow end-fill)
[2] = molecular target: STAT1alpha WT, untagged (IFNg-stimulated, pY701) (Homo sapiens) (UniProt P42224); assay: EMSA; settings: IFNg, binding irrespective of co-expressed mutant U-STAT1; 4 ul cell extract + 8 ul EMSA reaction buffer (composition and pH not given) with 1 ng 33P probe, 15 min RT; 4.8% 29:1 acrylamide gel at 4 C, 400 V; protein in a lysate after overexpression; label: 33P (Klenow end-fill)
[3] = molecular target: endogenous STAT1 (IFNg-stimulated, pY701) (UniProt P42224); assay: EMSA; settings: IFNg, cytoplasmic and nuclear fractions of HeLa expressing QM-GFP; 4 ul cell extract + 8 ul EMSA reaction buffer (composition and pH not given) with 1 ng 33P probe, 15 min RT; 4.8% 29:1 acrylamide gel at 4 C, 400 V; protein in an extract; label: 33P (Klenow end-fill)
[4] = molecular target: QM-GFP (quadruple mutant U-STAT1) R274W,T385A,R602L,Y701F (Homo sapiens) (UniProt P42224); assay: EMSA; settings: 4 ul cell extract + 8 ul EMSA reaction buffer (composition and pH not given) with 1 ng 33P probe, 15 min RT, 4.8% 29:1 acrylamide gel at 4 C, 400 V, protein in a lysate after overexpression, residues 1-746, protein details: C-terminal GFP, label: 33P (Klenow end-fill)
[5] = molecular target: STAT1alpha WT-GFP (IFNg-stimulated, pY701) (Homo sapiens) (UniProt P42224); assay: EMSA; settings: IFNg, co-expressed with untagged WT; 4 ul cell extract + 8 ul EMSA reaction buffer (composition and pH not given) with 1 ng 33P probe, 15 min RT; 4.8% 29:1 acrylamide gel at 4 C, 400 V; protein in a lysate after overexpression; residues 1-746; protein details: C-terminal GFP; label: 33P (Klenow end-fill)
[6] = tested on: STAT1alpha WT-GFP (IFNg-stimulated, pY701) + endogenous STAT1 (IFNg-stimulated, pY701); assay: EMSA supershift; settings: IFNg 45 min, mixed tetramers of varying stoichiometry; 4 ul cell extract + 8 ul EMSA reaction buffer (composition and pH not given) with 1 ng 33P probe, 15 min RT; 4.8% 29:1 acrylamide gel at 4 C, 400 V; protein in a lysate after overexpression; protein details: C-terminal GFP,none; label: 33P (Klenow end-fill)
[7] = molecular target: endogenous STAT1 (IFNg-stimulated, pY701) (UniProt P42224); assay: EMSA supershift; settings: IFNg 45 min, tetramer; 4 ul cell extract + 8 ul EMSA reaction buffer (composition and pH not given) with 1 ng 33P probe, 15 min RT; 4.8% 29:1 acrylamide gel at 4 C, 400 V; protein in an extract; label: 33P (Klenow end-fill)

**Q.** Which results are given for “TTTTCGACATTTCCCGTAAATCTG (double strand) [M67 (single GAS)]”?
**A.** binding result [1]: no binding; binding result [2]: binds; binding result [3]: binds; binding result ([4]; IFNg, co-expressed with untagged WT, no GFP-tagged STAT1 band): no binding; binding result [5]: binds

**Q.** Does “TTTTCGTTTCCCCGAAATTGACGGATTTCCCCGAAAC (double strand) [2xGAS (tandem GAS)]” bind ([4]; IFNg 45 min, only tetramers of endogenous STAT1 detected)?
**A.** Result: no binding

**Q.** Does “TTTTCGTTTCCCCGAAATTGACGGATTTCCCCGAAAC (double strand) [2xGAS (tandem GAS)]” bind [6]?
**A.** Result: binds

**Q.** Does “TTTTCGTTTCCCCGAAATTGACGGATTTCCCCGAAAC (double strand) [2xGAS (tandem GAS)]” bind [7]?
**A.** Result: binds
